The name of at least one read-out is uncertain.
What was measured:
[1] = cited from earlier work
[2] = system: human neural stem cells (hNSCs); experiment: neuronal differentiation of cultured human neural stem cells (TUJ-1 staining), agents alone and in combination; conditions: read-out: EC50 for neuronal differentiation, agent alone; compound run individually; % of neuronal positive control, basal media subtracted;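 note: cells kept in mitogen-free test media, with growth-factor-free basal medium as the negative control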

N[C@](CC1c2ccccc2Oc2ccccc21)(C(=O)O)[C@H]1C[C@@H]1C(=O)O [LY341495, (2S)-2-amino-2-(1S,2S-2-carboxycycloprop-1-yl)-3-(xanth-9-yl) propanoic acid]
permeability across the blood-brain barrier [1]: readily permeably across the blood-brain barrier

N[C@@]1(C(=O)O)CO[C@H]2[C@H](C(=O)O)[C@H]21 [LY379268, (−)-2-Oxa-4-aminobicyclohexane-4,6-dicarboxylic acid]
permeability across the blood-brain barrier [1]: readily permeable across the blood-brain barrier

C[C@H](CS)C(=O)N1CCC[C@H]1C(=O)O [captopril]
EC50 [2]: 5.2 µM

From patent US20110046090A1 (BrainCells Inc., priority 2005, published 2011)
